Results from the supplement of paper PMC10849652.
This is one part of the list.

Sequences of proteins named here, by UniProt entry; tags and fusion partners are left off. A change or cut given only in a name is not applied to a line headed by its entry.
UniProt P51606: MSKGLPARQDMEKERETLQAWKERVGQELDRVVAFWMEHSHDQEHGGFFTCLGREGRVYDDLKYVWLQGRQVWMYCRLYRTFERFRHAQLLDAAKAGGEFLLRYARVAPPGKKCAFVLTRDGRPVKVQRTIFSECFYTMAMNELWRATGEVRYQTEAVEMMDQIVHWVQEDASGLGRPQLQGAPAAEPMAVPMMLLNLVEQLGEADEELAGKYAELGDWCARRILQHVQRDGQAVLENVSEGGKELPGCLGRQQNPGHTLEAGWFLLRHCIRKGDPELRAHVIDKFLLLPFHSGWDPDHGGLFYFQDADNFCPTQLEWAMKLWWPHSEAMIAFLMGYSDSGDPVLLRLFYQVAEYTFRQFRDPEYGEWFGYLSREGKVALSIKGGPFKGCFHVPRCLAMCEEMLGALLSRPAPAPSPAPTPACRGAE
UniProt Q9Y4C8: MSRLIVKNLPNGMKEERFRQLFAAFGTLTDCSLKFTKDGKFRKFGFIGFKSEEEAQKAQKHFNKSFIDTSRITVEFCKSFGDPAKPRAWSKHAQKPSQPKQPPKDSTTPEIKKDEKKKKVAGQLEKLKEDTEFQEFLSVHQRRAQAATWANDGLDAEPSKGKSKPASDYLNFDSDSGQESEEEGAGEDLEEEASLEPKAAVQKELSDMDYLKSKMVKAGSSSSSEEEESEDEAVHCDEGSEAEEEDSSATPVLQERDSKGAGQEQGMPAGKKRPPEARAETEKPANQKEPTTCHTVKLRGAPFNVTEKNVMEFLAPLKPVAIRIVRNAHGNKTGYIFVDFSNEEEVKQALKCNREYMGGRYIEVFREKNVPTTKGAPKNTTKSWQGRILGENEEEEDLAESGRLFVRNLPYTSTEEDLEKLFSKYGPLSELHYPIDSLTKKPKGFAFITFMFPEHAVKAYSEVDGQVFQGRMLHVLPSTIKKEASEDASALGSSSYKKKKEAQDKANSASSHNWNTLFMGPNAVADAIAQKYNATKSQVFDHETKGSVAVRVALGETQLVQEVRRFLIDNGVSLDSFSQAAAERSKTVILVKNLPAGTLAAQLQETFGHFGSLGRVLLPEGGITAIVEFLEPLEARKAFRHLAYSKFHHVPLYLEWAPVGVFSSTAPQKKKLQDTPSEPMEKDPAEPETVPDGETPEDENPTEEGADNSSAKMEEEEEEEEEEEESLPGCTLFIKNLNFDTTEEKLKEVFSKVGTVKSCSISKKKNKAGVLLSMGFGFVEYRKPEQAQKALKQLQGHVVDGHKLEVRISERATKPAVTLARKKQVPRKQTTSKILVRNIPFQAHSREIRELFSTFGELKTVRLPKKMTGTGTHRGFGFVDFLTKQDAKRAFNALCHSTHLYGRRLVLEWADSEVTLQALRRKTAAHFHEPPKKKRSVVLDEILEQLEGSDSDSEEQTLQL
UniProt Q14498: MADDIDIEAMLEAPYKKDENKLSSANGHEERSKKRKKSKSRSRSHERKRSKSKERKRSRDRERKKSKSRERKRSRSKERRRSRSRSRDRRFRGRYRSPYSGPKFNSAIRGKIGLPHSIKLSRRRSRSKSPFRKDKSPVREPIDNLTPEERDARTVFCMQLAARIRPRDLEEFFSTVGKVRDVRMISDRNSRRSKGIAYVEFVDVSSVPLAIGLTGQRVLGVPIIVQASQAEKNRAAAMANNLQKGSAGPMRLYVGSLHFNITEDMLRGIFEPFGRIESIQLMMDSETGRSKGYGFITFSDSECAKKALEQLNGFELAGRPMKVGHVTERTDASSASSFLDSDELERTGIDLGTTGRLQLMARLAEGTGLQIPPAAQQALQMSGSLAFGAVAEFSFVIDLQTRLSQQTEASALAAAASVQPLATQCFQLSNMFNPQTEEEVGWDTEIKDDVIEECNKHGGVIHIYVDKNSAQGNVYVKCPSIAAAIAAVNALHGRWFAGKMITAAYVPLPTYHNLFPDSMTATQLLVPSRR
UniProt Q8TDY2, whole entry, looked up: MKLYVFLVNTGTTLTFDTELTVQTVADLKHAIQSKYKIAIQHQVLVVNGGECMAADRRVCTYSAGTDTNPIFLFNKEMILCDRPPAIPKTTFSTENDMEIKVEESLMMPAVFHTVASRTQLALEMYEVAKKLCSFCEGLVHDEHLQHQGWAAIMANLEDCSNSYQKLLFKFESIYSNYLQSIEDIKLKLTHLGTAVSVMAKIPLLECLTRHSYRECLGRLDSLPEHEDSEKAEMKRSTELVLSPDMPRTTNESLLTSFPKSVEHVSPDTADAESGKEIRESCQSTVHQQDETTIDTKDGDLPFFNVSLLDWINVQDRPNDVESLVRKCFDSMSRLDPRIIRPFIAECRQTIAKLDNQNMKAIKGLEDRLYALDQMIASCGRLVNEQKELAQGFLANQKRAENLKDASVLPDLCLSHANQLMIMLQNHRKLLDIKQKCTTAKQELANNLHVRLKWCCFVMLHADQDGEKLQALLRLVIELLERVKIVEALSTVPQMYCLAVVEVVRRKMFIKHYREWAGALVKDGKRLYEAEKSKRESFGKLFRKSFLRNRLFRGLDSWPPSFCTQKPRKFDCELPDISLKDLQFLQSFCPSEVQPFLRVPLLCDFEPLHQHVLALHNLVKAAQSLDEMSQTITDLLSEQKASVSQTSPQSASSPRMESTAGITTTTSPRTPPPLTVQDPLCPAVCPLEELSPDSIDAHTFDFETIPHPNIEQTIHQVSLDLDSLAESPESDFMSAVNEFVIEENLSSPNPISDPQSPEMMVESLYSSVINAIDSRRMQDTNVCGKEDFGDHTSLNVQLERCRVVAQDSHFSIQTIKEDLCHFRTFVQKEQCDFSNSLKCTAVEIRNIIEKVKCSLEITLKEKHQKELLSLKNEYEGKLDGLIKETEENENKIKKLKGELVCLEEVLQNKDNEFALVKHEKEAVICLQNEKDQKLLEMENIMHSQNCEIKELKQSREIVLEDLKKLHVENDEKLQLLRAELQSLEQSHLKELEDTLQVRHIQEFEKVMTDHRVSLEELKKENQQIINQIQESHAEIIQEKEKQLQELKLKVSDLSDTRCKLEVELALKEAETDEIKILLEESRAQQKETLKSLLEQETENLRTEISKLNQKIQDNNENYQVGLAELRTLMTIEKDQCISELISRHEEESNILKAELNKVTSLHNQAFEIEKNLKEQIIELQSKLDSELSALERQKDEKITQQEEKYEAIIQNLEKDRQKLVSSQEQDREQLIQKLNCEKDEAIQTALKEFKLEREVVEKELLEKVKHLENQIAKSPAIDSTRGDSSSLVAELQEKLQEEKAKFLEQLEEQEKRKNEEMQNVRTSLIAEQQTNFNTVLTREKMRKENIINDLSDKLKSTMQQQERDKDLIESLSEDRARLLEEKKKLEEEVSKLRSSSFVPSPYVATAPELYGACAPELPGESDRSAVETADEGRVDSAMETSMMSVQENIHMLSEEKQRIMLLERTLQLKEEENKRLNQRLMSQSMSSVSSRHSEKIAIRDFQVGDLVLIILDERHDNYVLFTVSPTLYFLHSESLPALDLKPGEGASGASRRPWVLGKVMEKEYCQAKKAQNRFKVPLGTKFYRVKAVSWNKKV
UniProt P62877, whole entry, looked up: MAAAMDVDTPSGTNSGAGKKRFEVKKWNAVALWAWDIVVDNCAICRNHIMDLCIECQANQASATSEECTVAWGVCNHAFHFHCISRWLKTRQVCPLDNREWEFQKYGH
UniProt Q8TEU7: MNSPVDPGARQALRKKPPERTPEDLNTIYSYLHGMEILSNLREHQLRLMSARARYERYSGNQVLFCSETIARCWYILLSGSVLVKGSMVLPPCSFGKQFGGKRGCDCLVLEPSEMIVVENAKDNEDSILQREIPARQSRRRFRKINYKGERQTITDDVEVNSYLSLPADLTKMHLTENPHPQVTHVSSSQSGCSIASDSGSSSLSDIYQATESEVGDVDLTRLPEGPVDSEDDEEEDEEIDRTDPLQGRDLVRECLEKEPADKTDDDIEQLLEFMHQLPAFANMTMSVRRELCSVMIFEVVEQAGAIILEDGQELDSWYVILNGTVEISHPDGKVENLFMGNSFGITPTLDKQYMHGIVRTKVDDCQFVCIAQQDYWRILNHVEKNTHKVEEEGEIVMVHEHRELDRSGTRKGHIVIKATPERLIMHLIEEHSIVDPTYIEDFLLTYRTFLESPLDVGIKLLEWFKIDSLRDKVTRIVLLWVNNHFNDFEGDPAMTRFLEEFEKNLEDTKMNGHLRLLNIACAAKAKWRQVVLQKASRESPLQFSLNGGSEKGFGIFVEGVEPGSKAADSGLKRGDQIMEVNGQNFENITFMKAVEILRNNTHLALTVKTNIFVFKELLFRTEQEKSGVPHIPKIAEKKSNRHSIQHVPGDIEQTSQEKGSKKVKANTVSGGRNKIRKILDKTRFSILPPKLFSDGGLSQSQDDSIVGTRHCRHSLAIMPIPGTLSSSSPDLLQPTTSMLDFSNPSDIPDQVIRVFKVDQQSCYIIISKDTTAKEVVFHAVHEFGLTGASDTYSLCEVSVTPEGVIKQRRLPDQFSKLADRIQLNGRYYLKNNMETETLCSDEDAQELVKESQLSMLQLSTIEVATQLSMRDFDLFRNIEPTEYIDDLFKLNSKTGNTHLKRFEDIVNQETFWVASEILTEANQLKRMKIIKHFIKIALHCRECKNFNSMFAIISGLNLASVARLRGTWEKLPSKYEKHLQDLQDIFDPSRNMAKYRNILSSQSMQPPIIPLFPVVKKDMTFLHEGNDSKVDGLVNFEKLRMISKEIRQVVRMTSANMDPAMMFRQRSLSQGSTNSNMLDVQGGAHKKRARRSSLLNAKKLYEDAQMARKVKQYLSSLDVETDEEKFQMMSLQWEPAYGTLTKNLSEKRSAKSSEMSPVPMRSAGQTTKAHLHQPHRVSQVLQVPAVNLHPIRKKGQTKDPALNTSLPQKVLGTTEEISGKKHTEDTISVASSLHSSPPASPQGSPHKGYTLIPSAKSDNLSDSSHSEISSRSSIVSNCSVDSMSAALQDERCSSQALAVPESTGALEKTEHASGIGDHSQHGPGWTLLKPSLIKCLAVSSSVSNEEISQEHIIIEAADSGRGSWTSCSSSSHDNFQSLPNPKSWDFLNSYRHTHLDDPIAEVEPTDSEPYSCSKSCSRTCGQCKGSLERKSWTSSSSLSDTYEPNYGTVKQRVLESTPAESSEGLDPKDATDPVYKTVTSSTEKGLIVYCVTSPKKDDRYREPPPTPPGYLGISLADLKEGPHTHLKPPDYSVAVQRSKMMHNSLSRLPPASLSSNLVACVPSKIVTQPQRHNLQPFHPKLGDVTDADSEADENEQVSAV
UniProt Q9NTZ6: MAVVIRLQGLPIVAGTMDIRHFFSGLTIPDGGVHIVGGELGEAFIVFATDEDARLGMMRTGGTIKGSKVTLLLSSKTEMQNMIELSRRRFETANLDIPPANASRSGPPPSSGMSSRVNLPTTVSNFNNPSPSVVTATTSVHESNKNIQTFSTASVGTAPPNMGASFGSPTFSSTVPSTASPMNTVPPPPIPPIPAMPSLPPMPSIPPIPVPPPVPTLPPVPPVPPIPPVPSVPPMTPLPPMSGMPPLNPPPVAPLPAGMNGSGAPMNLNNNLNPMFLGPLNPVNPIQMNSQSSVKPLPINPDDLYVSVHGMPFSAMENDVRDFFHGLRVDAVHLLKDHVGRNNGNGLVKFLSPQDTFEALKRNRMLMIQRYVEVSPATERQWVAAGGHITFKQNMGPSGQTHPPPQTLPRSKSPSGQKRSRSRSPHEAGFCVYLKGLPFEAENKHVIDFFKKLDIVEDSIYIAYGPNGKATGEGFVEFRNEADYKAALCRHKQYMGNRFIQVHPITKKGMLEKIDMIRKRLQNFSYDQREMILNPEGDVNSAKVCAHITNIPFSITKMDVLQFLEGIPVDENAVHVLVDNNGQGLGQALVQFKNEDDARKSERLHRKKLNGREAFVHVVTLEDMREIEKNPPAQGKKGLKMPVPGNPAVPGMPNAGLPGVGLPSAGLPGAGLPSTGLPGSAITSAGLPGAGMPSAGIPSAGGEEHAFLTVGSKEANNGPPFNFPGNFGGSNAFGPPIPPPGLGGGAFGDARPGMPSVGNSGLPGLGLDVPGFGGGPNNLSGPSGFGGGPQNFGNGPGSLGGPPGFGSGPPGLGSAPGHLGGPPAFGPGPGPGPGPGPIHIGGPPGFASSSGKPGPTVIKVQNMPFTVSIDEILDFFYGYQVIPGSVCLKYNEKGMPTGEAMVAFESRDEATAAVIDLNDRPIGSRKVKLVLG
UniProt Q8NBN7: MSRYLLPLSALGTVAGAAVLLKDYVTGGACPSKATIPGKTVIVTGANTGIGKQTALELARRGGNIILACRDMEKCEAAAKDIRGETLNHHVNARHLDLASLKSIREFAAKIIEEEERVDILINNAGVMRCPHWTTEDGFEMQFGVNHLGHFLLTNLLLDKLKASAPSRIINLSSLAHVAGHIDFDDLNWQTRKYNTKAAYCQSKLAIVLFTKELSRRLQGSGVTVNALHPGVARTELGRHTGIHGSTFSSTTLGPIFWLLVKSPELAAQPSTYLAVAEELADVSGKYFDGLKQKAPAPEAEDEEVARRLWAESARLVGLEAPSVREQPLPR

Experiments:
Test in all cases: log2 fold change, soluble protein after heating vs DMSO (PISA); higher = thermal stabilisation; K562 lysate, 10 uM; active = over 0.2 and 3.5 SD of the protein, either way, in both replicates (recomputed)
ibrutinib = compound: C=CC(=O)N1CCC[C@@H](n2nc(-c3ccc(Oc4ccccc4)cc3)c3c(N)ncnc32)C1 [ibrutinib]
Outline: (§1)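 K562 pellets were dounce-homogenised in PBS pH 7.4 with 1 mM MgCl2, and the crude extract at 1 mg/mL protein was treated with 10 μM compound for 30 min. Aliquots were heated for 3 min across 48°C-58°C, pooled, and brought to 0.5% NP-40 at 4°C; soluble protein was the supernatant after 21,000xg for 90 min. Soluble protein was quantified by TMTpro 16plex LC-MS/MS with channel sums equalised, and reported as log2 fold change in thermal stability against DMSO controls, with values from duplicates.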

[1] = compound: CC(=O)c1cnc2ccc(-c3cc(Cl)c(O)c(Cl)c3)nc2c1N[C@H]1CC[C@H](CN(C)C)CC1
Outline: as §1

ralimetinib = compound: CC(C)(C)Cn1c(N)nc2ccc(-c3[nH]c(C(C)(C)C)nc3-c3ccc(F)cc3)nc21 [ralimetinib]
Outline: as §1

[2] = compound: CC(C)(O)CC(=O)NCCn1ccc2ncnc(Nc3ccc(Oc4cccc(C(F)(F)F)c4)c(Cl)c3)c21
Outline: as §1

[3] = compound: CC(C)C1=C2N=C(C=C(N2N=C1)NCC3=CC=CC=C3)NCCCCCCN
Outline: as §1

[4] = compound: CC1=C(C(CC(=O)N1)C2=CC=C(C=C2)C(F)(F)F)C(=O)NC3=C(C=C4C(=C3)C=NN4)F
Outline: as §1

[5] = compound: CC1=C(C2=C(C=C1)C(=O)C3=CC=CC=C3N2CCCN)C
Outline: as §1

[6] = compound: CC1=C(C=C(C=C1)NC(=O)C2=CC(=CC=C2)C(C)(C)C#N)NC3=CC4=C(C=C3)N=CN(C4=O)C
Outline: as §1

[7] = compound: CC1=C(C=C(C=C1)NC(=O)C2=CC(=CC=C2)N(C)C)NC(=O)C3=CC=C(C=C3)O
Outline: as §1

[8] = compound: CC1=CC=C(C=C1)SC2=C3C=C(SC3=CN=C2)C(=O)N
Outline: as §1

Measured: log2 fold change

RBM28 (UniProt Q9NW13)
inactive: ibrutinib 0.007 | [1] -0.003 | ralimetinib 0.019 | [2] -0.013 | [3] 0.011 | [4] -0.024 | [5] -0.031 | [6] -0.023 | [7] 0.043 | [8] -0.003

RENBP (UniProt P51606)
inactive: ibrutinib -0.039 | [1] -0.032 | ralimetinib -0.012 | [2] -0.008 | [3] 0.002 | [4] 0.021 | [5] -0.042 | [6] 0.023 | [7] -0.007 | [8] 0.014

RECQL (UniProt P46063)
inactive: ibrutinib -0.012 | [1] -0.003 | ralimetinib 0.002 | [2] 0.019 | [3] 0.011 | [4] -0.004 | [5] -0.017 | [6] 0.017 | [7] -0.015 | [8] -0.003

RBM19 (UniProt Q9Y4C8)
inactive: ibrutinib -0.126 | [1] 0.064 | ralimetinib 0.107 | [2] 0.031 | [3] -0.059 | [4] 0.042 | [5] -0.015 | [6] -0.215 | [7] 0.033 | [8] -0.004

RBM39 (UniProt Q14498)
inactive: ibrutinib 0.011 | [1] 0.02 | ralimetinib 0.014 | [2] -0.006 | [3] 0.057 | [4] -0.001 | [5] -0.018 | [6] -0.007 | [7] 0.024 | [8] 0.071

RAVER1 (UniProt E9PAU2)
inactive: ibrutinib -0.032 | [1] 0.021 | ralimetinib 0.016 | [2] 0.007 | [3] 0.012 | [4] 0.066 | [5] -0.003 | [6] 0.066 | [7] -0.014 | [8] 0.005

RB1CC1 (UniProt Q8TDY2)
inactive: ibrutinib 0.012 | [1] -0.026 | ralimetinib -0.012 | [2] -0.029 | [3] -0.003 | [4] 0.001 | [5] -0.019 | [6] 0.014 | [7] 0.048 | [8] -0.014

RGS14 (UniProt O43566)
inactive: ibrutinib -0.08 | [1] 0.035 | ralimetinib 0.112 | [2] 0.009 | [3] -0.123 | [4] 0.087 | [5] -0.033 | [6] 0.169 | [7] 0 | [8] -0.004

RBM22 (UniProt Q9NW64)
inactive: ibrutinib 0.01 | [1] -0.007 | ralimetinib -0.03 | [2] -0.044 | [3] -0.033 | [4] 0.009 | [5] -0.014 | [6] 0.043 | [7] -0.01 | [8] -0.006

REPS1 (UniProt Q96D71)
inactive: ibrutinib -0.02 | [1] -0.009 | ralimetinib 0.006 | [2] -0.068 | [3] 0.003 | [4] -0.011 | [5] -0.014 | [6] 0.027 | [7] 0.015 | [8] 0.003

RCN2 isoform 2 (UniProt Q14257)
inactive: ibrutinib 0.017 | [1] -0.019 | ralimetinib 0.031 | [2] -0.015 | [3] -0.048 | [4] 0.012 | [5] 0.01 | [6] -0.004 | [7] 0.011 | [8] -0.03

RFX5 (UniProt P48382)
inactive: ibrutinib -0.061 | [1] -0.01 | ralimetinib 0.046 | [2] 0.014 | [3] -0.092 | [4] 0.077 | [5] 0.008 | [6] 0.06 | [7] -0.057 | [8] 0.012

RBBP7 (UniProt Q16576)
inactive: ibrutinib 0.062 | [1] 0.018 | ralimetinib 0.018 | [2] 0 | [3] -0.042 | [4] -0.003 | [5] 0.014 | [6] -0.114 | [7] 0.002 | [8] -0.03

RBX1 (UniProt P62877)
inactive: ibrutinib 0.165 | [1] -0.087 | ralimetinib 0.259 | [2] 0.22 | [3] -0.014 | [4] 0.062 | [5] 0.136 | [6] 0.107 | [7] -0.031 | [8] -0.02

RAPGEF6 isoform 4 (UniProt Q8TEU7)
inactive: ibrutinib -0.01 | [1] -0.003 | ralimetinib 0.021 | [2] -0.028 | [3] 0.002 | [4] 0.013 | [5] -0.02 | [6] -0.004 | [7] 0.038 | [8] -0.031

RCN1 (UniProt Q15293)
inactive: ibrutinib -0.031 | [1] -0.002 | ralimetinib -0.004 | [2] 0.034 | [3] -0.019 | [4] -0.007 | [5] -0.016 | [6] -0.029 | [7] 0.005 | [8] 0.008

RDH14 (UniProt Q9HBH5)
inactive: ibrutinib 0.017 | [1] 0.061 | ralimetinib 0.072 | [2] 0.089 | [3] 0.012 | [4] -0.031 | [5] 0.053 | [6] -0.073 | [7] 0.032 | [8] -0.012

RHEB (UniProt Q15382)
inactive: ibrutinib 0.024 | [1] 0.03 | ralimetinib 0.065 | [2] 0.048 | [3] 0.008 | [4] -0.01 | [5] 0.003 | [6] -0.018 | [7] -0.001 | [8] 0.003

RCC1L (UniProt Q96I51)
inactive: ibrutinib -0.018 | [1] -0.016 | ralimetinib 0.059 | [2] 0.014 | [3] -0.016 | [4] -0.006 | [5] -0.026 | [6] -0.016 | [7] -0.002 | [8] 0.009

RHAG (UniProt Q02094)
inactive: ibrutinib 0.004 | [1] -0.035 | ralimetinib -0.001 | [2] -0.068 | [3] 0.042 | [4] 0.09 | [5] -0.056 | [6] 0.08 | [7] 0.008 | [8] -0.003

RGS10 (UniProt O43665)
inactive: ibrutinib 0.03 | [1] 0.01 | ralimetinib 0.029 | [2] 0.02 | [3] -0.02 | [4] -0.017 | [5] -0.052 | [6] -0.008 | [7] -0.018 | [8] -0.043

RFC2 (UniProt P35250)
inactive: ibrutinib 0.009 | [1] 0.018 | ralimetinib 0.036 | [2] 0.044 | [3] -0.002 | [4] -0.001 | [5] 0.011 | [6] 0.008 | [7] 0.048 | [8] -0.001

RCN3 (UniProt Q96D15)
inactive: ibrutinib 0.137 | [1] -0.019 | ralimetinib -0.015 | [2] -0.016 | [3] -0.032 | [4] 0.01 | [5] -0.017 | [6] -0.01 | [7] 0.013 | [8] -0.002

Taken from above (eight entries):
RBX1 (UniProt P62877)
inactive: ibrutinib 0.165 | [1] -0.087 | ralimetinib 0.259 | [2] 0.22 | [3] -0.014 | [4] 0.062 | [5] 0.136 | [6] 0.107 | [7] -0.031 | [8] -0.02

RAPGEF6 isoform 4 (UniProt Q8TEU7)
inactive: ibrutinib -0.01 | [1] -0.003 | ralimetinib 0.021 | [2] -0.028 | [3] 0.002 | [4] 0.013 | [5] -0.02 | [6] -0.004 | [7] 0.038 | [8] -0.031

RCN1 (UniProt Q15293)
inactive: ibrutinib -0.031 | [1] -0.002 | ralimetinib -0.004 | [2] 0.034 | [3] -0.019 | [4] -0.007 | [5] -0.016 | [6] -0.029 | [7] 0.005 | [8] 0.008

RDH14 (UniProt Q9HBH5)
inactive: ibrutinib 0.017 | [1] 0.061 | ralimetinib 0.072 | [2] 0.089 | [3] 0.012 | [4] -0.031 | [5] 0.053 | [6] -0.073 | [7] 0.032 | [8] -0.012

RHEB (UniProt Q15382)
inactive: ibrutinib 0.024 | [1] 0.03 | ralimetinib 0.065 | [2] 0.048 | [3] 0.008 | [4] -0.01 | [5] 0.003 | [6] -0.018 | [7] -0.001 | [8] 0.003

RCC1L (UniProt Q96I51)
inactive: ibrutinib -0.018 | [1] -0.016 | ralimetinib 0.059 | [2] 0.014 | [3] -0.016 | [4] -0.006 | [5] -0.026 | [6] -0.016 | [7] -0.002 | [8] 0.009

RHAG (UniProt Q02094)
inactive: ibrutinib 0.004 | [1] -0.035 | ralimetinib -0.001 | [2] -0.068 | [3] 0.042 | [4] 0.09 | [5] -0.056 | [6] 0.08 | [7] 0.008 | [8] -0.003

RGS10 (UniProt O43665)
inactive: ibrutinib 0.03 | [1] 0.01 | ralimetinib 0.029 | [2] 0.02 | [3] -0.02 | [4] -0.017 | [5] -0.052 | [6] -0.008 | [7] -0.018 | [8] -0.043

Next results follow:

RBSN (UniProt Q9H1K0)
inactive: ibrutinib 0.018 | [1] 0.043 | ralimetinib -0.014 | [2] -0.007 | [3] 0.043 | [4] 0.025 | [5] -0.032 | [6] 0.044 | [7] 0.003 | [8] 0.035

RBM33 (UniProt Q96EV2)
inactive: ibrutinib 0.056 | [1] 0.004 | ralimetinib 0.065 | [2] -0.013 | [3] -0.014 | [4] -0.022 | [5] -0.002 | [6] 0.021 | [7] -0.003 | [8] -0.013

RBM12 (UniProt Q9NTZ6)
inactive: ibrutinib -0.002 | [1] 0.002 | ralimetinib -0.02 | [2] 0 | [3] -0.006 | [4] -0.003 | [5] 0.02 | [6] -0.016 | [7] 0.021 | [8] 0

RAPGEF5, A0A590UJR0
inactive: ibrutinib 0.028 | [1] -0.031 | ralimetinib -0.023 | [2] -0.049 | [3] -0.372 | [4] -0.287 | [5] 0.01 | [6] 0.056 | [7] -0.025 | [8] 0.049

RBM7 (UniProt Q9Y580)
inactive: ibrutinib -0.009 | [1] 0.043 | ralimetinib 0.04 | [2] 0.017 | [3] -0.013 | [4] -0.002 | [5] 0.03 | [6] -0.029 | [7] 0.03 | [8] 0.013

REEP5 (UniProt Q00765)
inactive: ibrutinib 0.043 | [1] 0.004 | ralimetinib -0.014 | [2] -0.01 | [3] -0.037 | [4] 0.017 | [5] -0.039 | [6] 0.004 | [7] -0.016 | [8] -0.042

RDH13 (UniProt Q8NBN7)
inactive: ibrutinib -0.01 | [1] -0.01 | ralimetinib 0.011 | [2] -0.102 | [3] -0.041 | [4] 0.023 | [5] -0.005 | [6] 0.005 | [7] 0 | [8] 0.056
